# Measured values from PubChem BioAssay AID1273 (Columbia University Molecular Screening Center, 2008).
# Some of the results follow. Further columns of the screen follow, without active or inactive calls. Compounds called inactive in the main read-out are mostly missing here.
# Assay: inhibitors of insulin promoter-driven GFP, primary screen, imaging, TRM-6 cells (human fetal islet line), eGFP reporter, cell count (AID 1273;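 further: cells exposed to compound for 48 h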)
# Conditions: measured here: cell count, toxicity, at 2 µM, reporter expression induced with tamoxifen
row,Compound,normalized cell count
1,O=C(CSc1oc(-c2ccco2)nc1S(=O)(=O)c1ccccc1)NCC1CCCO1 (stereo unspecified),88.9%
2,O=C(Cn1cnc2c(cnn2-c2ccc(F)cc2)c1=O)N1CCN(c2ccccc2)CC1,40.2%
3,CC(c1ccccc1)N1CCc2[nH]c(=S)[nH]c(=O)c2C1 (stereo unspecified),60.3%
4,CCOC(=O)c1ccc(NC(=O)c2cc3ccccc3o2)cc1,130%
5,Cc1nn(C2CCS(=O)(=O)C2)c(Cl)c1/C=C/C(=O)OCC(=O)Nc1ccccc1OC(F)F (stereo unspecified),99.1%
6,O=C(CN1CCOc2ccccc21)NCc1ccc(F)cc1,106%
7,COc1cc2c(cc1OC)-c1cc(OCc3ccccc3Cl)nc(=O)n1CC2,32.9%
8,O=c1c2ccccc2c(/C=N/c2ncn[nH]2)c(O)n1Cc1ccccc1,90%
9,Cc1ccc(N2CC(O)=C(c3ccccc3)C2=N)cc1,20.6%
10,CCc1ccc(S(=O)(=O)c2nnn3c2nc(NCCNC(C)=O)c2ccccc23)cc1,36.4%
11,Cc1[nH]c2ccc(F)cc2c(=O)c1SC(F)(F)C(F)F,80.2%
12,CCCC(=O)NC(=S)Nc1ccc(Cl)cn1,123%
13,CCOc1ccc2nc(-c3ccccc3)[nH]c2c1,118%
14,c1ccc(Cn2nnc3c(N4CCc5ccccc5C4)ncnc32)cc1,76.6%
15,Cc1cc(NC(=O)c2ccccc2-c2ccccc2C(=O)O)no1,75.1%
16,Cc1cccc(NC(=S)N=Nc2c(O)n(CN3CCOCC3)c3ccccc23)c1C,95%
17,CCC(C)/C(C)=N/NC(=O)c1ccc(CSc2nc3ccccc3s2)cc1 (stereo unspecified),0%
18,CC(=O)OC(C(=O)NCc1ccco1)c1cccnc1 (stereo unspecified),61.4%
19,CCn1nc(C)c(NC(=O)CSc2nnc(-c3ccco3)n2C)c1C,90.5%
20,C/C(=C\c1ccco1)C1C(C#N)=C(N)OC2=C1C(=O)CC(C)(C)C2 (stereo unspecified),138%
21,O=C(Nc1ccc(Cl)cc1)c1cc2nc(-c3ccco3)cc(C(F)(F)F)n2n1,46.3%
22,CCCCNc1nc2ccccc2[nH]1,3.77%
23,Cc1cc(C)cc(COn2ccnc2)c1,42.6%
24,COc1ccc(-c2[nH]ncc2/C=C(\C#N)C(=O)NC2CC2)cc1,67.4%

row,Compound,normalized cell count
1,Cc1cc2c(cc1C)CSC(c1ccc3ccccc3c1O)SC2,104%
2,CCN(CC)CCN(C(=O)c1ccc(S(=O)(=O)N2CCCCC2)cc1)c1nc2cc3c(cc2s1)OCO3,88.8%
3,CCOC(=O)c1[nH]c2cc(OC)c(OC)cc2c1NC(=O)CN1CCN(c2ccc(OC)cc2)C(C)C1 (stereo unspecified),173%
4,O=C(CCCc1cccs1)Nc1nc2c(s1)CCCC2,150%
5,Cc1nc(C)c(-c2csc(Nc3cccnc3)n2)s1,146%
6,CC(=O)Nc1ccc(NC(=O)c2cccc3c2-c2ccccc2C3=O)cc1,25%
7,Cc1ccc(Cl)cc1N1CCN(C(=O)C2CCN(c3nnc(-n4cccc4)s3)CC2)CC1,121%
8,CN1CCn2c1nc(N1CCOCC1)nc2=O,149%
9,Cn1cc(CN2CCc3ccccc3C2)c2ccccc21,54.4%
10,Cc1ccc(N2CC(C(=O)NCc3cccnc3)CC2=O)cc1 (stereo unspecified),115%
11,O=C(CN1CCN(Cc2ccc(Cl)cc2)CC1)N/N=C/C=C/c1ccccc1[N+](=O)[O-],66.5%
12,CCOC(=O)[C@H](CCc1ccccc1)N[C@@H](C)C(=O)N1CCC[C@H]1C(=O)O,126%
13,Nc1cc(=O)[nH]c(=S)n1-c1cccc(C(F)(F)F)c1,89.1%
14,Cc1ccc(-n2c(=O)[nH]cc(C(=O)Nc3ccc4c(c3)OCCO4)c2=O)cc1C,135%
15,COc1cccc(C(=O)Nc2nc(-c3ccncc3)cs2)c1,155%
16,COc1cccc(-c2nnc(-c3ccc(C(F)(F)F)cc3)o2)c1OC,70.4%
17,O=C(O)C1CSC(c2ccccc2)N1C(=O)c1ccco1 (stereo unspecified),104%
18,CCC(=O)n1nc(-c2ccc(OC)cc2)nc1SC,167%
19,O=c1oc(-c2cccs2)nc2sc3c(c12)CCCC3,81.9%
20,CCCCOC(=O)c1nc[nH]c1C(=O)OCCCC,119%
21,Cn1c(Cc2ccccc2)nnc1SCc1ccc(C(=O)O)cc1,104%
22,CCN(CC)C(=O)c1sc2c(c1C)c(=O)n(-c1ccc(C)c(C)c1)c(=O)n2CC(=O)NCC1CCCO1 (stereo unspecified),27.2%
23,Cc1ccc(N=Nc2c(N)nn3c(C)cc(C)nc23)cc1,117%
24,C=CCNc1nc(N2CCCC2)nc2ccccc12,104%

# By substructure, those above containing a COOH group
row,Compound,normalized cell count
15,Cc1cc(NC(=O)c2ccccc2-c2ccccc2C(=O)O)no1,75.1%
12,CCOC(=O)[C@H](CCc1ccccc1)N[C@@H](C)C(=O)N1CCC[C@H]1C(=O)O,126%
17,O=C(O)C1CSC(c2ccccc2)N1C(=O)c1ccco1 (stereo unspecified),104%
21,Cn1c(Cc2ccccc2)nnc1SCc1ccc(C(=O)O)cc1,104%

# Quoted at random: 2 compounds from above.
row,Compound,normalized cell count
24,C=CCNc1nc(N2CCCC2)nc2ccccc12,104%
21,Cn1c(Cc2ccccc2)nnc1SCc1ccc(C(=O)O)cc1,104%

# Following part:

row,Compound,normalized cell count
1,COc1ccc(-c2nnc(N)s2)cc1,100%
2,COc1ccc(C2=C(N)c3ccccc3C2=O)cc1,46.2%
3,O=C(Nc1ccsc1C(=O)NC1CC1)c1ccccc1,132%
4,CCCNc1nc(OC(C(F)(F)F)C(F)(F)F)nc(OC(C(F)(F)F)C(F)(F)F)n1,149%
5,O=C(Nc1cccs1)Nc1ccc(Br)cc1F,190%
6,CCN(CC)C(c1ccc(F)cc1)c1nnnn1CC1CCCO1 (stereo unspecified),97.2%
7,COc1ccc(C(=O)N2CCN(C(C)=O)CC2)cc1S(=O)(=O)NCc1ccc(Cl)cc1,154%
8,CCC(=O)Nc1cc(C)c(NC(=O)C23CC4CC(CC(C4)C2)C3)cn1,50.8%
9,COc1ccc(CCNC(=O)C2CCN(S(=O)(=O)c3c(C)noc3C)CC2)cc1OC,68.2%
10,COc1ccc(N2CCN(C(=O)CN(c3ccc(Br)cc3)S(C)(=O)=O)CC2)cc1,26.9%
11,N#CC1=C2SCN(Cc3ccccc3)CN2C(=O)CC1c1ccc2c(c1)OCO2 (stereo unspecified),106%
12,CN(C)S(=O)(=O)c1ccc(N2CCCC2)c(C(=O)NCC2CCCCC2)c1,70.6%
13,COC(=O)c1cc(-c2ccc(Cl)cc2Cl)n[nH]1,77.8%
14,Cc1cccc(-n2c3nc(=O)[nH]c(=O)c-3cc3c(C)nn(-c4ccccc4)c32)c1,45.2%
15,O=C(CCCOc1ccc(Cl)cc1Cl)N/N=C/c1ccco1,120%
16,CCOc1ccc(NC(=O)c2cnccn2)cc1,45%
17,N#Cc1c(N2CCN(C(=O)c3ccco3)CC2)nc(-c2ccccc2)c2c1CCCC2,108%
18,Cc1ccc(SCCC(=O)N/N=C/c2ccncc2)cc1,152%
19,COc1ccc(C2=NCC(CSc3nccc(=O)[nH]3)S2)cc1 (stereo unspecified),123%
20,COc1cc(NC(=O)c2cccs2)c(C(=O)OCC(=O)NC(C)c2ccccc2)cc1OC (stereo unspecified),48.3%
21,Cc1nc(S(=O)(=O)Cc2ccccc2Cl)nc2c1CCC2,119%
22,CCOC(=O)C1CCCN(C2CC(=O)N(c3ccc(C)cc3)C2=O)C1 (stereo unspecified),82.9%
23,O=C(NNC(=S)NCC1CCCO1)c1cccc(S(=O)(=O)N2CCOCC2)c1 (stereo unspecified),76.6%
